Measurements as given in patent US7749962B2, “Alpha 5 beta 1 and its ability to regulate the cell survival pathway” (University of Medicine & Dentistry of NJ, priority 2002, dated 2010).
At least one structure is not confirmed: it was looked up by name or label, or the drawing left a doubt.

Test system: MCF-7 and T-47D cells
Assay: Survival of dormant clones with FGF-2 on fibronectin, colonies ≦10 cells counted
Format: cell-based
Settings: FGF-2 on fibronectin 3 days, then inhibitor and fresh FGF-2 for 3 days

O=c1cc(N2CCOCC2)oc2c(-c3ccccc3)cccc12 [LY294002]
fibronectin-promoted survival of dormant breast cancer cell clones: reduces fibronectin-promoted survival
